Source: ChEMBL document CHEMBL3988442, “University of Dundee, Small-Polar-MMV Screening Library” (2021).

Amino acid sequences for entries named in this document (tags omitted). Residues count along the entry.
UniProt A4I591, 1-473: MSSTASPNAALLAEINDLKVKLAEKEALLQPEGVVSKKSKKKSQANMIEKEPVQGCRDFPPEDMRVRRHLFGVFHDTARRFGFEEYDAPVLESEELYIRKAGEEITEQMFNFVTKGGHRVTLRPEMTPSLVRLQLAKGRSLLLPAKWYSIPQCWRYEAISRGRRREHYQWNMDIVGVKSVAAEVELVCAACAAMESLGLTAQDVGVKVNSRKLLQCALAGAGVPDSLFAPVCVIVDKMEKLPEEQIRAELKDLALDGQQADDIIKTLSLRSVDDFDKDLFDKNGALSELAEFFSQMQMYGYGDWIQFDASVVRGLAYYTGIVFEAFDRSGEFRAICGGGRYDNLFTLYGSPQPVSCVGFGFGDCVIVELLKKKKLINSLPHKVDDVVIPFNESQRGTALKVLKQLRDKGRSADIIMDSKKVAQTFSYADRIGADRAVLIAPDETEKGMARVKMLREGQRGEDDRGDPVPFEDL
UniProt P9WPC5, whole entry: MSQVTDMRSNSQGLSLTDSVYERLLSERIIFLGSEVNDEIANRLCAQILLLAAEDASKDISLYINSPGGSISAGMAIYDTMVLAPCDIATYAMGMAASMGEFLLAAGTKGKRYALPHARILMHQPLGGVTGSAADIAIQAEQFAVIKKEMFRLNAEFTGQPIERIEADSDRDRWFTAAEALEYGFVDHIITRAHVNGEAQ
UniProt P9WPC3, whole entry partner: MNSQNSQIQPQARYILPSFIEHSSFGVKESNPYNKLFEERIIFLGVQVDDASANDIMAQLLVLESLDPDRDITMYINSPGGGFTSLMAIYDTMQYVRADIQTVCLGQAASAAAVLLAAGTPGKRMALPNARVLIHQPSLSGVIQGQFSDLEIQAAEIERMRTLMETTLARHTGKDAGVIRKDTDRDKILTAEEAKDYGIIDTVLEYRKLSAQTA

LiHisRS: 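Enzyme assay of histidyl-tRNA synthetase; the read-out is not stated. Target: Histidine-tRNA ligase, Leishmania infantum (UniProt A4I591). Concentration: 30 µM. Direction is inferred from retests: higher values go with stronger inhibition. The assay is labelled LdHisRS but filed under L. infantum. About 69,000 compounds were tested under these conditions; 0.6% (about 410) showed 50% or more at least once.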
Toxoplasma: 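Assay of Toxoplasma gondii numbers, read through their beta-galactosidase reporter with a colour substrate. Compounds at 10 µM. The record gives no direction; the compounds picked for IC50 retests had high values, so higher reads as fewer parasites. Size under these conditions: about 67,000 compounds, about 260 of them at 50% or above in at least one test.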
ClpP1P2: 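Protease assay of ClpP1P2, read by the AMC dye that it sets free. Target: ClpP1P2, Mycobacterium tuberculosis (UniProt P9WPC5 and UniProt P9WPC3). Concentration: 50 µM. Direction is inferred from only a few compounds that gave an IC50; most scored high, so higher reads as stronger inhibition. Most other retested compounds had strongly negative values. About 69,000 compounds were tested under these conditions; 0.015% (about 10) showed 50% or more at least once.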
T. brucei: 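Whole-parasite assay of Trypanosoma brucei over 72 hours; the read-out is not stated. Concentration: 30 µM. The record gives no direction; compounds that gave an IC50 in retests scored well above the rest, so higher reads as stronger inhibition. Values scatter widely below zero; nearly all retest evidence comes from the higher of the two concentrations used. Size under these conditions: about 64,000 compounds, about 940 of them at 50% or above in at least one test.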
Leishmania in macrophages: 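Cell assay of Leishmania donovani living inside macrophages; the read-out is not stated. Concentration: 30 µM. Direction is inferred from retests: higher values go with stronger inhibition. Of about 69,000 compounds tested this way, about 1,000 (1.5%) reached 50% or more in at least one test.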

Results are given as percent effect. How 0% and 100% were set is not recorded. Most values in the screen are low, and negative values occur. The compounds are a random part of those screened. Two or more numbers in one place are separate tests of the same structure; such repeats can differ widely. A dash means the value is not listed here; it may have been measured.

| # | SMILES | LiHisRS | Toxoplasma | ClpP1P2 | T. brucei | Leishmania in macrophages |
|---|---|---|---|---|---|---|
| 1 | `CC(C)Oc1ncccc1CNC(=O)N1CCSCC1` | 10.91 | 5.648 | -3.315 | -7.812 | 27.04 |
| 2 | `Cc1csc(C2CCCCN2C(=O)c2cc(Cl)c[nH]2)n1` (centres undefined) | 2.632 | 16.97 | -19.99 | -18.82 | 0.7179 |
| 3 | `CCCc1nc(CN(CC)C(=O)c2ccc3c(c2)nnn3C)no1` | 12.9 | 8.343 | 7.387 | -13.05 | 17.24 |
| 4 | `[H][C@]12CCN(C(=O)CCO)C[C@@]1([H])OCCN(C(=O)c1ccco1)C2` | - | -29.26 | - | -66.4 | 13.53 |
| 5 | `O=C(Nc1ccccc1)C1CN(Cc2ccco2)CC12CCOCC2.O=C(O)C(F)(F)F` (centres undefined) | - | 1.025 | - | -43.1 | 14.17 |
| 6 | `Cc1cc(C(=O)N2CCC(CCC(=O)NCCN(C)C)CC2)ccc1O` | -13.33 | 17.92 | 10.28 | -33.26 | 2.063 |
| 7 | `O=C(NCCc1cccc(F)c1)C1(n2cnnn2)CCCCC1` | 2.632 | 8.024 | -12.39 | -16.48 | 27.25 & 23.82 |
| 8 | `CCNC(=O)C(C)NC(=O)Nc1ccccc1SCC` (centres undefined) | 16.67 | 11.75 | -5.716 | -63.8 | -3.981 |
| 9 | `COc1cc(/C=C/c2ncc(C(=O)O)s2)cc(Cl)c1O` | 37.84 | -3.206 | 29.77 | 5.841 | 50.87 |
| 10 | `Cc1csc(CNC(=O)Cc2ccc3c(c2)OCCO3)n1` | 13.22 | 3.011 | -7.509 | 26.02 | 9.154 |
| 11 | `Cc1nc(CNC(=O)C(C)(C)c2ccc(F)cc2)no1` | 9.948 | -3.433 | -0.01274 | -34.3 | 37.71 |
| 12 | `O=C(O)c1cc(Br)cnc1OCC1CC1` | 14.58 | 3.198 | -15.13 | - | 2.019 |
| 13 | `Cc1cccnc1NC(=O)C(C)Cn1nc(C(F)(F)F)cc1C` (centres undefined) | -13.59 | -3.467 | 2.69 | 53.66 | 17.68 |
| 14 | `Cc1noc(C)c1CN1CCO[C@H]2CN(C(=O)C3CCOCC3)C[C@H]21` | 7.965 | - | 7.95 | - | - |
| 15 | `CCN(Cc1ccc2c(c1)OCCO2)C(=O)NC(C)Cn1cccn1` (centres undefined) | 10.71 | -50.88 | -29.99 | -13.16 | -25.43 |
| 16 | `O=C(O)c1ccccc1CN1CCC(c2ccnc3ccnn23)CC1` | -2.069 | -8.303 | -10.25 | -14.17 | 2.982 |
| 17 | `Cc1ccc(N2CCO[C@H]3CN(Cc4ccoc4)C[C@H]32)nn1` | 8.257 | - | 11.56 | - | - |
| 18 | `Cc1cc(C2CCCN2C(=O)CN2CC3(CCNCC3)OC2=O)on1` (centres undefined) | 11.48 | -1.681 | 1.18 | -47.74 | 8.182 |
| 19 | `CN(C)CCN1CCCC12CCN(C(=O)c1cccn1C)CC2.O=C(O)C(F)(F)F.O=C(O)C(F)(F)F` | - | -9.849 | - | 13.79 | 10.58 |
| 20 | `CC(=O)c1ccc(C(=O)N2CCC(c3cc(O)nc(C)n3)CC2)s1` | 14.88 | 0.6787 | -6.62 | -12.78 | 37.88 |
| 21 | `CN1CCN(c2ccc(F)cc2NC(=O)NCCn2ccnc2)CC1` | 15.93 | -24.46 | -2.187 | -75.35 | 1.184 |
| 22 | `CN1CC(=O)N(c2cccc(F)c2)CC12CCN(CC1CCOCC1)C2.O=C(O)C(F)(F)F.O=C(O)C(F)(F)F` (centres undefined) | - | 1.438 | - | 9.991 | 33.26 |
| 23 | `CN1CCCC(Cc2cc(N(C)C)ncn2)C1` (centres undefined) | 5.714 | -0.1502 | -27.62 | -16.21 | 29.65 |
| 24 | `Cc1cc(C)n(CC2CCCN2C(=O)c2ccc(NC3CC3)nc2)n1` (centres undefined) | 8.772 | -20.26 | 18.55 | -7.484 | -9.426 |
| 25 | `COCCN1CCC(Cc2cncc(-c3ccc(C(=O)O)cc3)n2)C1` (centres undefined) | -2.778 | 5.189 | -0.6843 | 13.65 | 17.15 |
| 26 | `CO[C@H]1CN(S(=O)(=O)c2cn(C)cn2)[C@@H]2CCCO[C@H]12` | 11.11 | - | 1.495 | - | - |
| 27 | `Cc1cc(C(=O)N(CC(F)(F)F)C2CCOCC2)c(C)o1` | 15.05 | 1.782 | 0.8106 | -4.86 | -9.718 |
| 28 | `Cc1nc(N2CCCC2)nc(C)c1NC(=O)c1ccco1` | 6.957 | -2.96 | 2.338 | 7.006 | 13.84 & -9.792 |
| 29 | `Cc1cc(NC(=O)CN(C)C2CCCN(c3cccnn3)C2)on1` (centres undefined) | 6.25 | 22.73 | -28.04 | -14.56 | -6.139 |
| 30 | `Fc1ccccc1CN1CCCC2(CCN(c3ncccn3)CC2)C1.O=C(O)C(F)(F)F` | - | 15.76 | - | -57.15 | 19.17 |
| 31 | `Cc1cc(C)c2nc(C)cc(C(=O)N3CC(O)CO3)c2c1` (centres undefined) | -12.09 | -15.77 | 10.66 | -14.93 | -6.158 |
| 32 | `COc1ccc2c(c1)OCC(CNC(=O)CCc1c(C)n[nH]c1C)C2` (centres undefined) | 19.78 | -6.008 | 3.609 | -11.42 | 30.48 |
| 33 | `Cl.O=C(CCC1CCCC1)NCCn1nc(C2CCNC2)c2cccnc21` (centres undefined) | - | 3.605 | - | 11.21 | 2.445 |
| 34 | `OC1CCN(c2ccnc(NCCc3ccccc3Cl)n2)C1` (centres undefined) | 8.434 | 73.82 | -7.751 | 22.58 | 64.18 |
| 35 | `[H][C@]12CC[C@]([H])(CN(Cc3ccccc3)C1)N(Cc1cc(=O)[nH]c(=O)[nH]1)C2` | - | 5.74 | - | -33.99 | 7.75 |
| 36 | `Cc1cc(=O)[nH]c(NCCNC(=O)c2ccccc2N2CCCC2)n1` | 22.37 | -5.826 | 7.44 | -39.1 | -53.95 |
| 37 | `Cc1ccc(C(=O)N2CCCC(N(C)C(=O)OC(C)(C)C)C2)o1` (centres undefined) | 15.79 | 16.66 | 0.6756 | 18.43 | 5.854 |
| 38 | `Cc1n[nH]c(C)c1CCN(C)C(=O)c1ccc(CCC(C)(C)O)cc1` | 10.85 | -5.843 | -12.09 | -11.13 | 9.516 |
| 39 | `O=C(COc1coc(CN2CCCCC2)cc1=O)Nc1cccc(Cl)c1` | 21.05 | 0.04564 | -2.507 | -26.12 | 8.905 |
| 40 | `CC(C)(C)CN(CCC#N)C(=O)Nc1cccc(N2CCNC2=O)c1` | 20 | -16.5 | -8.226 | -55.64 | 28.44 |
| 41 | `COCCOc1ccccc1CNCC1COC2(CCCC2)O1` (centres undefined) | -1.01 | -7.747 | 9.321 | 102 | 16.75 |

The last 2 entries again:

- CC(C)(C)CN(CCC#N)C(=O)Nc1cccc(N2CCNC2=O)c1 : LiHisRS: 20%; Toxoplasma: -16.5%; ClpP1P2: -8.226%; T. brucei: -55.64%; Leishmania in macrophages: 28.44%
- COCCOc1ccccc1CNCC1COC2(CCCC2)O1 (centres undefined) : LiHisRS: -1.01%; Toxoplasma: -7.747%; ClpP1P2: 9.321%; T. brucei: 102%; Leishmania in macrophages: 16.75%